Measured values published in article doi:10.1101/2025.09.18.676997.
Results are given in words; binding and its absence hold for the method and conditions named. In cells and extracts the contact can be indirect. Some results given as binding are weak or reduced against the parent protein; the word gives no strength.

Molecular target: Serum Response Factor (SRF) wild type (human) (UniProt P11831)
Test: co-IP

binding: binds
B1: Serum Response Factor (SRF) wild type (protein, UniProt P11831 1-508)
chain: MLPTQAGAAAALGRGSALGGSLNRTPTGRPGGGGGTRGANGGRVPGNGAGLGPGRLEREAAAAAATTPAPTAGALYSGSEGDSESGEEEELGAERRGLKRSLSEMEIGMVVGGPEASAAATGGYGPVSGAVSGAKPGKKTRGRVKIKMEFIDNKLRRYTTFSKRKTGIMKKAYELSTLTGTQVLLLVASETGHVYTFATRKLQPMITSETGKALIQTCLNSPDSPPRSDPTTDQRMSATGFEETDLTYQVSESDSSGETKDTLKPAFTVTNLPGTTSTIQTAPSTSTTMQVSSGPSFPITNYLAPVSASVSPSAVSSANGTVLKSTGSGPVSSGGLMQLPTSFTLMPGGAVAQQVPVQAIQVHQAPQQASPSRDSSTDLTQTSSSGTVTLPATIMTSSVPTTVGGHMMYPSPHAVMYAPTSGLGDGSLTVLNAFSQAPSTMQVSHSQVQEPGGVPQVFLTASSGTVQIPVSAVQLHQMAVIGQQAGSSSNLTELQVVNLDTAHSTKSE
